Here are results for one substance from publication PMC6274985.

By UniProt entry, the sequences of proteins in these tests, tags left out.
UniProt O15379: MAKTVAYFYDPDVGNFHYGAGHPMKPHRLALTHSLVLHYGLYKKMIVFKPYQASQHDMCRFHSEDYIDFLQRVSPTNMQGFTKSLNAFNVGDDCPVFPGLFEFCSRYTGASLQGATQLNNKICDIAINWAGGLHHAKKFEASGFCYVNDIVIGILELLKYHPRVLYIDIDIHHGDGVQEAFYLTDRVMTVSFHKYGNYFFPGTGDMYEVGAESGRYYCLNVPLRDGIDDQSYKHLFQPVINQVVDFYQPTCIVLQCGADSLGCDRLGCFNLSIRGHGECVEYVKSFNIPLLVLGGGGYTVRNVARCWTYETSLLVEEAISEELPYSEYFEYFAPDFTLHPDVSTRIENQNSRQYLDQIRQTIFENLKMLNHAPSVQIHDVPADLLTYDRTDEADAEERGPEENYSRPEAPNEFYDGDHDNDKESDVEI

Results are given in words; binding and its absence hold for the method and conditions named. In cells and extracts the contact can be indirect. Some entries that bind do so weakly or less than the wild type.

The test addresses hemagglutinin (HA)-tagged forkhead box O1 (FoxO1) (UniProt Q9R1E0).

“flag-tagged histone deacetylase 3 (HDAC3) (from UniProt O15379 1-428) (enzyme)”: the binding result is reported as “binds”.
